Among the data in paper PMC3796546 are binding values, retold here.

Chains of the proteins cited; added tags and fusions are not shown.
UniProt P25694: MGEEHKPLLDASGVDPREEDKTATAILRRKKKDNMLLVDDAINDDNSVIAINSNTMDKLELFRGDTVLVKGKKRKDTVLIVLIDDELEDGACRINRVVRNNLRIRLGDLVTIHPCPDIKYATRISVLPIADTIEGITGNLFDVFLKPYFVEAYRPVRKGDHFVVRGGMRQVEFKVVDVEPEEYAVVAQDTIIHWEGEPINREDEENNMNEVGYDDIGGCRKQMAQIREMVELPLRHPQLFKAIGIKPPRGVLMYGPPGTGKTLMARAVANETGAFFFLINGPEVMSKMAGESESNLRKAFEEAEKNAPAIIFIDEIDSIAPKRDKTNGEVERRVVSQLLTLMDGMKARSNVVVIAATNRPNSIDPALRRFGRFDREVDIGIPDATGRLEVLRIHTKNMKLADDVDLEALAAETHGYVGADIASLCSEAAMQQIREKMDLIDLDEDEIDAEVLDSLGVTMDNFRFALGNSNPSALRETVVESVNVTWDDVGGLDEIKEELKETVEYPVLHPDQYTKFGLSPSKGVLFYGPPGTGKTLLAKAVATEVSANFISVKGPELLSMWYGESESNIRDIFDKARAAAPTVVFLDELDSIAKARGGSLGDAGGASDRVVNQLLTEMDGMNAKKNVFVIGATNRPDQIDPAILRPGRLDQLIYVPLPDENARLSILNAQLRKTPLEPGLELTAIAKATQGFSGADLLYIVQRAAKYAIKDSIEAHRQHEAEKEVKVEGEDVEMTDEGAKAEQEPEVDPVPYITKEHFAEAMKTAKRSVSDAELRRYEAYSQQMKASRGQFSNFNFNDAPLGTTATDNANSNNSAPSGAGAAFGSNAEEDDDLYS

Results are given in words; binding and its absence hold for the method and conditions named. Binding seen in cells or lysates may run through a third protein. Some binding calls cover weakened binding; strength is not graded here.

For test [1], the target named is T1, 3xHA-Irc20 (a.a. 584–1238) (S. cerevisiae) (UniProt Q06554).
T1 sequence: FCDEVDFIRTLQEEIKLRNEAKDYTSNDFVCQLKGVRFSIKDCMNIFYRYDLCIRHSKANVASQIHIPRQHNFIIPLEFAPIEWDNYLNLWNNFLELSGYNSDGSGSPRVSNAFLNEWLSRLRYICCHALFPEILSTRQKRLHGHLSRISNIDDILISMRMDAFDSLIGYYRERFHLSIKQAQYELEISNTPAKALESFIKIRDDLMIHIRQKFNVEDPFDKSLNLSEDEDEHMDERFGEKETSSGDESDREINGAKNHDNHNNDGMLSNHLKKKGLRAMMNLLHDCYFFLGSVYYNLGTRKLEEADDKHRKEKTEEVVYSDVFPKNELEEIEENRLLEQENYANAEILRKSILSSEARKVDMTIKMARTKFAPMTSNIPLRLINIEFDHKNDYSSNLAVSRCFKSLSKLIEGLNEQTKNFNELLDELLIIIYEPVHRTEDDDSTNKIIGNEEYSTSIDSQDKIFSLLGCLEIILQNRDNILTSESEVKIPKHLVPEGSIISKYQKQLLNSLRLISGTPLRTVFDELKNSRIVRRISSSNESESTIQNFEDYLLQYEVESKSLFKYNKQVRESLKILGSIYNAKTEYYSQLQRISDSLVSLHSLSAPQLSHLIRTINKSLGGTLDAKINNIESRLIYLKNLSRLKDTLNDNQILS
The experiment in a line: co-IP; yeast crude extract in RNP buffer (0.1 M HEPES pH 7.4, 100 mM NaCl, 0.1% NP-40) on anti-HA agarose beads, 4°C, 90 minutes; HA-Irc20 derivatives precipitated, Cdc48–3xMyc detected by anti-MYC western blot.

Test [2] concerns the target T2, 3xHA-Irc20 (a.a. 1034–1238) (S. cerevisiae) (UniProt Q06554).
T2 sequence: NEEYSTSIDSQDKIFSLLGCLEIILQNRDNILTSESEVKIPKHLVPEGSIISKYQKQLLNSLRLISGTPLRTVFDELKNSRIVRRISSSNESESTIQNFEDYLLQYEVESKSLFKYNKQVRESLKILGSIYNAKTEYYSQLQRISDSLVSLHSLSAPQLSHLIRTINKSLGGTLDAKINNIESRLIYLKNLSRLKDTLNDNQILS
Described as above.

Regarding Cdc48–3xMyc (from UniProt P25694 1-835), the binding entry in test [1] and in test [2] was “binds” in each case.
